Laboratory results published in article doi:10.1101/2020.12.01.406488.
Results are given in words; binding and its absence hold for the method and conditions named. In cells and extracts the contact can be indirect. Some binding calls cover weakened binding; strength is not graded here.

The chains behind the UniProt entries cited, without tags or fusion partners.
UniProt O70546: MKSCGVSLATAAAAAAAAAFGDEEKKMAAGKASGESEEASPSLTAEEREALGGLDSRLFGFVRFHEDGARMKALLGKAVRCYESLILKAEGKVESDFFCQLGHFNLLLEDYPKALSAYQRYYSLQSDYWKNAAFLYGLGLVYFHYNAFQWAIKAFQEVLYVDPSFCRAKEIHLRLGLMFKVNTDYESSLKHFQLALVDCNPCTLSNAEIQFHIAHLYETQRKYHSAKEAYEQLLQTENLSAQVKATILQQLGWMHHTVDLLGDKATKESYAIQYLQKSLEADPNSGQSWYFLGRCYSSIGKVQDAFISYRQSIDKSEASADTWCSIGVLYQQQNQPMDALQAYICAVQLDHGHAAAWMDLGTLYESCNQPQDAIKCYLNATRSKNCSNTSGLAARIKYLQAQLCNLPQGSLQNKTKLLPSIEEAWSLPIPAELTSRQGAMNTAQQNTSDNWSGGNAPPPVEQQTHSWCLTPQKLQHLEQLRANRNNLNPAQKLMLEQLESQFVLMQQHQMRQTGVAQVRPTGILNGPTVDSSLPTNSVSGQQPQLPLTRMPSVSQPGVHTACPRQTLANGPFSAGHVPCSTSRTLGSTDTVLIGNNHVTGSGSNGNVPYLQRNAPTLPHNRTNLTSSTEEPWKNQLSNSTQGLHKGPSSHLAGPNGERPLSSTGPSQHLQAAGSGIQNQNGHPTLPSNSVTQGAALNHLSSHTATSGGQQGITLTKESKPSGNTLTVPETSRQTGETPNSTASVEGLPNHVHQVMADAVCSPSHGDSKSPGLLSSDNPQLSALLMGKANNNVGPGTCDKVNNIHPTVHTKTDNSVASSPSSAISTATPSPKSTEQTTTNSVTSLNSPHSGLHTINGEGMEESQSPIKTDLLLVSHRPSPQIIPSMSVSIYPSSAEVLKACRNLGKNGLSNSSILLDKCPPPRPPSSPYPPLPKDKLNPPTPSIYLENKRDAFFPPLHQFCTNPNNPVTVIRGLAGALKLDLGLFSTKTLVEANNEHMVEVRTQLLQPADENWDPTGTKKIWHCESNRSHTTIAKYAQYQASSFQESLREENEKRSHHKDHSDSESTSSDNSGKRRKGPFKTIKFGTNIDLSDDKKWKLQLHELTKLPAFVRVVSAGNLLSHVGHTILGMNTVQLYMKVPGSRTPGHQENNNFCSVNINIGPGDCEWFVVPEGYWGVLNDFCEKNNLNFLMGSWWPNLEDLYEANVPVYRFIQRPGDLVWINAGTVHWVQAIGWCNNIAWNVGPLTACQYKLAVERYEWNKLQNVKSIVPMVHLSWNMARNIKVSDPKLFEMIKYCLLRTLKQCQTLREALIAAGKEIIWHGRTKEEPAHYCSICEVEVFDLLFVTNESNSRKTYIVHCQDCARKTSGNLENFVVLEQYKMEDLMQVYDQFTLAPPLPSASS
UniProt Q8BUN5: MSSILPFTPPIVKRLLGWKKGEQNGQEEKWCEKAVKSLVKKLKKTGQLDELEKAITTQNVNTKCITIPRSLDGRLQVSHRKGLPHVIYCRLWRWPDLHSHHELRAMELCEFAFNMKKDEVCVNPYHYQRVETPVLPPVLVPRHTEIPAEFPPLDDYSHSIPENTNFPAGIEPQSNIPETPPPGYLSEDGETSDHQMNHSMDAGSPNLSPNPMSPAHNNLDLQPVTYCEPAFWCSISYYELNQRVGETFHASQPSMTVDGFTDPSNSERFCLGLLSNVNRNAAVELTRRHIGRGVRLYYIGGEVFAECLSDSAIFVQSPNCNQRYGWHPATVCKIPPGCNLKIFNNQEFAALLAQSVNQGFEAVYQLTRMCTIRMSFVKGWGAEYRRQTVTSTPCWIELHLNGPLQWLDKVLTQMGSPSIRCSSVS

T1: Oct1 (mouse (endogenous in ESCs)) (UniProt P25425)
T1 sequence: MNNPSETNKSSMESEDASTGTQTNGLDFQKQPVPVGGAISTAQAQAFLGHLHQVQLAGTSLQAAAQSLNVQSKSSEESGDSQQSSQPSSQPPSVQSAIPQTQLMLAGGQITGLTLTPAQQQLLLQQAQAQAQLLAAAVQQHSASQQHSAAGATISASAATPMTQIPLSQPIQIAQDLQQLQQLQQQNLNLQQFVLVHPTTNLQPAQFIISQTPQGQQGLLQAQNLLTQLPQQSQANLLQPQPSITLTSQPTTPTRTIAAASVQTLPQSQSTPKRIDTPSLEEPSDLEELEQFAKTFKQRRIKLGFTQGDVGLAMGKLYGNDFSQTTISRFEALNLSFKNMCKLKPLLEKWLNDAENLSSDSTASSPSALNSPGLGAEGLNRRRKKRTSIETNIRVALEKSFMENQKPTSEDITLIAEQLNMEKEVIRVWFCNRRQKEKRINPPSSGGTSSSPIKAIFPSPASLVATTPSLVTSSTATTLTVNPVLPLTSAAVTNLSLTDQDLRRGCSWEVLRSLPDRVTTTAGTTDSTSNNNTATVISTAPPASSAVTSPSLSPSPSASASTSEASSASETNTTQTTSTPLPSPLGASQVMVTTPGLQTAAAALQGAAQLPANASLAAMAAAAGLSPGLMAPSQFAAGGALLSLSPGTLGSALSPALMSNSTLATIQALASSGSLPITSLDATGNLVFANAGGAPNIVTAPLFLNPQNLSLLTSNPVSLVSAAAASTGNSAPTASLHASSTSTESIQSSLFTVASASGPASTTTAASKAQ


Key:
[1] = target: T1, Oct1 (mouse (endogenous in ESCs)); experiment: co-IP
[2] = target: Utx (mouse (endogenous in ESCs)) (UniProt O70546); experiment: co-IP

binding [1] | binding [2] | Molecule
binds |  | Smad3 (from UniProt Q8BUN5 1-425)
 | binds | Oct1 (protein, UniProt P25425 1-770) MNNPSETNKSSMESEDASTGTQTNGLDFQKQPVPVGGAISTAQAQAFLGHLHQVQLAGTSLQAAAQSLNVQSKSSEESGDSQQSSQPSSQPPSVQSAIPQTQLMLAGGQITGLTLTPAQQQLLLQQAQAQAQLLAAAVQQHSASQQHSAAGATISASAATPMTQIPLSQPIQIAQDLQQLQQLQQQNLNLQQFVLVHPTTNLQPAQFIISQTPQGQQGLLQAQNLLTQLPQQSQANLLQPQPSITLTSQPTTPTRTIAAASVQTLPQSQSTPKRIDTPSLEEPSDLEELEQFAKTFKQRRIKLGFTQGDVGLAMGKLYGNDFSQTTISRFEALNLSFKNMCKLKPLLEKWLNDAENLSSDSTASSPSALNSPGLGAEGLNRRRKKRTSIETNIRVALEKSFMENQKPTSEDITLIAEQLNMEKEVIRVWFCNRRQKEKRINPPSSGGTSSSPIKAIFPSPASLVATTPSLVTSSTATTLTVNPVLPLTSAAVTNLSLTDQDLRRGCSWEVLRSLPDRVTTTAGTTDSTSNNNTATVISTAPPASSAVTSPSLSPSPSASASTSEASSASETNTTQTTSTPLPSPLGASQVMVTTPGLQTAAAALQGAAQLPANASLAAMAAAAGLSPGLMAPSQFAAGGALLSLSPGTLGSALSPALMSNSTLATIQALASSGSLPITSLDATGNLVFANAGGAPNIVTAPLFLNPQNLSLLTSNPVSLVSAAAASTGNSAPTASLHASSTSTESIQSSLFTVASASGPASTTTAASKAQ
